Test results as given in US20220041697A1.
Results are given in words; binding and its absence hold for the method and conditions named. Some entries that bind do so weakly or less than the wild type.

The chains behind the UniProt entries cited, without tags or fusion partners. Where a name states a change or a piece, a line headed by the entry shows the natural chain unless it says otherwise. A line that says so, or that is headed by a name, gives the form on record, which may keep a tag or linker.
enriched human paired helical filament pathological tau protein (PHF) derived from human tauopathy brain (P10636, form named): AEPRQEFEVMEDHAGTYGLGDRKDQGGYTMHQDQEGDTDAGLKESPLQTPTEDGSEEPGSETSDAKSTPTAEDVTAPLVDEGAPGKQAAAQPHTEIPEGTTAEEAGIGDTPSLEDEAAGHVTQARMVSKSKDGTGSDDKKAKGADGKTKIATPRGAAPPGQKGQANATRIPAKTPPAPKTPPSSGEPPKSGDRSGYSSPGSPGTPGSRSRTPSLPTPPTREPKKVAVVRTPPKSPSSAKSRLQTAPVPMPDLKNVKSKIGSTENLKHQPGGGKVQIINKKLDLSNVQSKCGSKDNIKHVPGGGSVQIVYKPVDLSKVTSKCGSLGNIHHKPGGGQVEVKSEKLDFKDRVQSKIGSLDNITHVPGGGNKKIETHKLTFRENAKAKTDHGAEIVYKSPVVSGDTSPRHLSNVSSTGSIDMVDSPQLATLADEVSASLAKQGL

Tests used:
[1] = molecular target: pathological tau protein in human brain tissue (human) (UniProt P10636); assay: immunohistochemistry on human brain tissue (FIG. 2A legend)
[2] = molecular target: pathological tau protein in human brain tissue (human) (UniProt P10636); assay: immunohistochemistry on fixed human tauopathy brain tissue (FIG. 2A)
[3] = molecular target: enriched human paired helical filament pathological tau protein (PHF) derived from human tauopathy brain (human) (UniProt P10636); assay: mixed primary JNPL3 mouse brain culture treated with human PHF (FIG. 3 legend)

Measured: binding

B1: Tau mAb 8B2D1 (antibody, V domains shown)
VH: EVQLQQSGPELVKPGASVKMSCKASGYTFTSYVIHWVKQKPGQGLEWIGYIYPYNDGTIYNEKFKGKATLTSDTSSSTVYMELISLTAEDSAVYWCVRERDNYGVYWGQGTTLTVSS
VL: DVLLTQTPLSLPVSLGDQASISCRSSQSIVHSNGNTYLEWYLQKPGQSPELLIYKVSNRFYGVPDRFSGSGSGTDFTLKISRVEAEDLGVYYCFQDSHIPYTFGGGTRLEIK
binds: all assays above
